From PubChem BioAssay AID493014 (National Center for Advancing Translational Sciences (NCATS), 2011)
The list shows a part of the results. These are further read-outs of the screen, such as a control signal, another cell line or another target. No call is given for them. The list favours compounds with an active or inconclusive main result. The note in brackets gives the kind of curve behind each potency; many fits are weak.

Assay: qHTS Assay to Find Inhibitors of Chronic Active B-Cell Receptor Signaling
Settings: ABC-DLBCL IkBa-CBG/CBR reporter, luminescence ratio (green luciferase fused to IkBa over red control in TMD8 lymphoma cells), 4 h
Method in brief: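 TMD8 human ABC-DLBCL cells with doxycycline-inducible IκBα–green luciferase fusion and unfused red luciferase, in 0.5% FBS medium; compounds up to 46 uM, 4 h at 37C. Green/red luminescence ratio, filter-overlap corrected, fitted to concentration-response curves.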

[1] = measured here: CBR red luminescence, cell number
[2] = measured here: IkBa-CBG green luminescence

SMILES | AC50 [1] | AC50 [2]
Cc1onc(-c2ccccc2)c1C(=O)NNC(=O)c1ccccc1O | 32.6 µM [falling, single point] | –
Cc1ccc(OCC(=O)Nc2ccc3c(c2)CCC3)c([N+](=O)[O-])n1 | 7.94 µM [rising, partial curve, poor fit] | –
CCOC(=O)[C@H]1[C@H]2COc3ccc(C)cc3[C@@H]2N2C(=O)c3ccccc3NC(=O)[C@@]12C | 29.1 µM [falling, single point] | –
Cc1noc(C)c1C(=O)OCC(=O)Nc1cc(S(=O)(=O)N2CCOCC2)ccc1Cl | 8.91 µM [falling, partial curve] | –
CCC(=O)Nc1nc(-c2ccccc2)ns1 | 23.1 µM [falling, single point] | 4.61 µM [rising, full curve, poor fit]
C=CCn1c(COc2ccc(F)cc2)nnc1SCC(=O)Nc1cccc(S(N)(=O)=O)c1 | 31.6 µM [falling, single point] | –
CNC(=O)[C@H]1O[C@@H](n2cnc3c(NCc4cccc(I)c4)ncnc32)[C@H](O)[C@@H]1O | 9.2 µM [rising, partial curve] | 7.31 µM [falling, partial curve]
COc1ccc(NC(=O)CSc2nc(=O)n(CCN3CCOCC3)c3c2CCC3)c(OC)c1 | 29.1 µM [falling, single point] | –
O=C(Cc1cccs1)Nc1nc2ccccc2s1 | 11.2 µM [falling, single point] | –
O=S1(=O)[C@H]2C[C@@H]3C=C[C@@]2(CN1Cc1ccc(Cl)cc1)O3 | 25.1 µM [falling, single point] | –
CCCN1CCC(=NNC(=O)CSc2cc(C)c(Br)cc2C)CC1 | 0.82 µM [falling, full curve, poor fit] | –
COc1cc(/C=N/Nc2nc3c(c(=O)n(C)c(=O)n3C)n2Cc2ccccc2)ccc1OC(=O)c1ccco1 | 9.2 µM [falling, partial curve, poor fit] | –
C/C=C/C(=O)N(CC)c1ccccc1C | 10 µM [rising, partial curve, poor fit] | –
COc1ccc(-c2nc3ccccc3c(=O)n2CCOc2ccc(C)cc2C)cc1 | 1.3 µM [rising, full curve] | –
O=C(/C=C/c1ccco1)Nc1cccc(C(=O)Nc2ccccc2C(=O)O)c1 | 4.47 µM [falling, partial curve] | –
c1ccc(CCc2nc(-c3ccccn3)no2)cc1 | 18.4 µM [falling, partial curve] | –
CS(=O)(=O)c1ccc2nc(NC(=O)Nc3cccc(Cl)c3)sc2c1 | 3.98 µM [rising, partial curve, poor fit] | –
COc1ccc(CNCCC(c2ccc(F)cc2)c2ccc(OC(C)C)cc2)cc1OC (stereo not given) | 15.8 µM [falling, single point] | –
NNC(=O)COc1ccc(-c2n[nH]c(C(F)(F)F)c2-c2ccc(Br)cc2)c(O)c1 | 5.17 µM [falling, full curve] | 5.17 µM [rising, full curve, poor fit]
COc1ccccc1CNC(=O)CCc1c(C)nc2cc(-c3ccccc3OC)nn2c1C | 0.251 µM [falling, full curve, poor fit] | –

Exported in markdown: entries from further up.

| SMILES | AC50 [1] | AC50 [2] |
| --- | --- | --- |
| C=CCn1c(COc2ccc(F)cc2)nnc1SCC(=O)Nc1cccc(S(N)(=O)=O)c1 | 31.6 µM [falling, single point] | – |
| CNC(=O)[C@H]1O[C@@H](n2cnc3c(NCc4cccc(I)c4)ncnc32)[C@H](O)[C@@H]1O | 9.2 µM [rising, partial curve] | 7.31 µM [falling, partial curve] |

More results follow.

SMILES | AC50 [1] | AC50 [2]
O=C(NS(=O)(=O)c1ccccc1)c1ccccc1 | 0.731 µM [rising, full curve, poor fit] | –
Cc1ccc(SCc2ccc(C(=O)Nc3nccs3)o2)cc1 | 8.91 µM [falling, partial curve, poor fit] | –
CCOC(=O)C1(Cc2ccc(Cl)cc2)CCN(C(C)Cc2ccc(O)c(OC)c2)CC1 (stereo not given) | 15.8 µM [falling, partial curve] | –
Cc1ccc(Nc2nnc(SCC(=O)Nc3cccc(S(=O)(=O)NC4=NCCCCC4)c3)s2)cc1 | 11.6 µM [falling, partial curve, poor fit] | –
COc1ccc2oc(C)c(C(=O)c3ccc([N+](=O)[O-])cc3)c2c1 | 0.651 µM [rising, partial curve, poor fit] | –
COc1c(C)cc(C(=O)C2CCCN(Cc3ccc(Oc4ncccn4)cc3)C2)cc1C (stereo not given) | 2.24 µM [rising, partial curve] | –
CCOc1ccc(CCNC(=O)CS(=O)Cc2nc(-c3ccc(C)cc3)oc2C)cc1OCC (stereo not given) | 0.891 µM [rising, full curve, poor fit] | –
O=C(Cn1cnc2c(OCc3ccccc3)ncnc21)NCc1nc2ccccc2[nH]1 | 7.31 µM [rising, partial curve, poor fit] | –
CC(C)(C)N(Cc1ccccc1)C(=O)COC(=O)c1cccc([N+](=O)[O-])c1 | 8.91 µM [rising, partial curve, poor fit] | –
CC1CCN(C(=O)CN2C(=O)C(=O)N(C)C2=O)c2ccccc2S1 (stereo not given) | 18.4 µM [rising, single point] | –
COC(=O)CNC(c1ccccc1)c1cc(Br)ccc1NC(=O)OCc1ccccc1 (stereo not given) | 31.6 µM [falling, partial curve, poor fit] | –
CNC(=O)c1ccsc1NC(=O)c1coc2ccccc2c1=O | 4.47 µM [rising, partial curve, poor fit] | –
COC(=O)C(NC(C)=O)(Nc1cccc(C)n1)C(F)(F)F (stereo not given) | 7.94 µM [rising, partial curve, poor fit] | –
COC(=O)c1cnn2c(C)c(Cc3cccc(F)c3)c(C)nc12 | 1.64 µM [falling, partial curve] | –
Clc1ccc(-c2csc(-c3cccnc3)n2)s1 | 1.58 µM [rising, full curve, poor fit] | –
Cc1ccc2c(c1C)OC(=O)CC2c1ccccc1 (stereo not given) | 2.51 µM [rising, full curve, poor fit] | –
Cc1cc(C)cc(NC(=O)C2CCC(CNC(=O)[C@@H]3Cc4ccccc4CN3)CC2)c1 (stereo not given in full) | 10 µM [falling, partial curve, poor fit] | –
COc1ccc2cc(C(=O)NCCc3ccccc3)[nH]c2c1 | 3.98 µM [rising, partial curve, poor fit] | –
CSc1nccc(Nc2ccccc2)c1C#N | 17.8 µM [rising, partial curve, poor fit] | –
CCc1ccc(NC(=O)COC(=O)c2cccs2)cc1 | 11.2 µM [rising, partial curve, poor fit] | –

SMILES | AC50 [1] | AC50 [2]
CN(C)c1ncc(S(=O)(=O)c2ccccc2)c(-c2ccccc2Cl)n1 | 6.31 µM [rising, full curve] | –
O=C(OCc1ccccc1C(F)(F)F)c1cc([N+](=O)[O-])ccc1N1CCOCC1 | 1.41 µM [rising, partial curve, poor fit] | –
O=C(OCc1nnc(-c2ccccc2)o1)c1cc(=O)c2ccccc2o1 | 22.4 µM [falling, single point] | –
Cc1ccc(Nc2nc(Cl)nc(NC(C)(C)C)n2)cc1 | 1.78 µM [falling, partial curve, poor fit] | –
CCN(C(=O)COC(=O)c1cc([N+](=O)[O-])ccc1N1CCOCC1)c1ccccc1 | 1.16 µM [rising, full curve] | 23.1 µM [falling, partial curve, poor fit]
O=C1NCCCCC1NS(=O)(=O)c1ccc(F)c(F)c1 (stereo not given) | 11.2 µM [rising, partial curve, poor fit] | –
COc1cc(OC)cc(-c2sc3ccc(OC)cc3c2-c2ccc(OCCN3CCCCC3)cc2)c1 | – | 6.51 µM [falling, partial curve, poor fit]
COc1ccc(-c2cccc3c2NC(=O)C3=O)cc1OC | 18.4 µM [falling, partial curve] | 20.6 µM [falling, single point]
CC1CCc2c(sc3nc(CSc4ncn[nH]4)[nH]c(=O)c23)C1 (stereo not given) | 9.2 µM [falling, partial curve] | –
COc1cc(CN(C)CC2CCCN(CCc3ccccc3F)C2)cc(Cl)c1OC (stereo not given) | 35.5 µM [falling, single point] | –
O=C(CN(c1ccc(F)cc1)S(=O)(=O)c1ccc2c(c1)OCCO2)Nc1ccccc1 | 3.66 µM [falling, partial curve, poor fit] | –
CCN1CC2=C(OC(N)=C(C#N)C2c2ccccc2)/C(=C\c2ccccc2)C1 (stereo not given) | 8.2 µM [falling, partial curve] | –
Cc1ccc2[nH]c3c(c2c1)CCC3=O | 1.41 µM [rising, full curve] | –
O=[N+]([O-])c1ccc(-c2nc(NCC3CCCO3)c3ccccc3n2)cc1 (stereo not given) | 35.5 µM [falling, single point] | –
C#CCOCCOCCOCCNc1nc(N2CCN(C(=O)CCCCCCCCCCNC(=O)[C@@H](CCC(=O)O)n3cc(CCCCCN)nn3)CC2)nc(N2CCN(C(=O)CCCCCCCCCCNC(=O)[C@H]([C@@H](C)CC)n3cc(CCCCCN)nn3)CC2)n1 | 29.1 µM [falling, single point] | –
Cc1cc(OCCCCCNCCO)cc(C)c1Cl | 10 µM [falling, partial curve] | –
Cc1nnc2ccc(-c3cccc(NC(=O)Cc4cccs4)c3)nn12 | 6.31 µM [rising, partial curve, poor fit] | –
CCCCNC(=S)N/N=C1\CCCCc2ccccc21 | 29.1 µM [rising, single point] | –
CCc1noc(C)c1C(=O)NNC(=O)c1cc(OC)c(OC)c(OC)c1 | 29.1 µM [rising, single point] | –
C/C(=N\NC(=O)c1cccc(C)c1)c1ccc(N2CCOCC2)cc1 | 14.6 µM [falling, partial curve] | –
